Source: patent publication US20260315608A1, “Carrier Peptide Fragment and Use Thereof” (TOAGOSEI CO., LTD., priority 2022, published 2026)
Some results were stated once for a whole list of compounds, not compound by compound.

System: WS-1 cells
Experiment: Evaluation on cell toxicity of carrier peptide fragment (CCK-8 cell viability)
Type: cell-based, human
Conditions: 24 hours, in words

Ac-KKRTLRKEDEDRKKR-FAM (N-terminal acetyl; C-terminal FAM) [Example 3]
cell toxicity (concentration as high as 100 μM): hardly observed | cell viability compared to 1.67% DMSO control (sample concentration up to 100 μM, CCK-8, absorbance 450 nm): did not decrease compared to the example in which 1.67% of DMSO was added
